Data taken from patent US20230190760A1, “ADVANTAGEOUS THERAPIES FOR DISORDERS MEDIATED BY IKAROS OR AIOLOS” (C4 Therapeutics, Inc., priority 2020, published 2023).
Some results were stated once for a whole list of compounds, not compound by compound.

Amino acid sequences for entries named in this document (tags omitted). A change or cut given only in a name is not applied to a line headed by its entry.
UniProt Q96SW2: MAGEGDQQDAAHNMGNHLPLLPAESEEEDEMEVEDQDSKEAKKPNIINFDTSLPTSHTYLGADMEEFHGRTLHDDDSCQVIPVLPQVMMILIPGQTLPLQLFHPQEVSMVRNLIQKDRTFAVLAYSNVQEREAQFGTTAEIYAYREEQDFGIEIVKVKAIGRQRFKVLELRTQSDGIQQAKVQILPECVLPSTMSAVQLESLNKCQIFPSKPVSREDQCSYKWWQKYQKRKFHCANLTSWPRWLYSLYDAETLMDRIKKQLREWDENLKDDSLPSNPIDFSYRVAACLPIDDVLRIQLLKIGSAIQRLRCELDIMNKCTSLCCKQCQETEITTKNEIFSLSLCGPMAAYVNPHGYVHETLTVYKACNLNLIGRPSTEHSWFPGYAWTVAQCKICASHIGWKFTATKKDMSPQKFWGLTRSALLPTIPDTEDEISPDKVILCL
UniProt Q9UKT9: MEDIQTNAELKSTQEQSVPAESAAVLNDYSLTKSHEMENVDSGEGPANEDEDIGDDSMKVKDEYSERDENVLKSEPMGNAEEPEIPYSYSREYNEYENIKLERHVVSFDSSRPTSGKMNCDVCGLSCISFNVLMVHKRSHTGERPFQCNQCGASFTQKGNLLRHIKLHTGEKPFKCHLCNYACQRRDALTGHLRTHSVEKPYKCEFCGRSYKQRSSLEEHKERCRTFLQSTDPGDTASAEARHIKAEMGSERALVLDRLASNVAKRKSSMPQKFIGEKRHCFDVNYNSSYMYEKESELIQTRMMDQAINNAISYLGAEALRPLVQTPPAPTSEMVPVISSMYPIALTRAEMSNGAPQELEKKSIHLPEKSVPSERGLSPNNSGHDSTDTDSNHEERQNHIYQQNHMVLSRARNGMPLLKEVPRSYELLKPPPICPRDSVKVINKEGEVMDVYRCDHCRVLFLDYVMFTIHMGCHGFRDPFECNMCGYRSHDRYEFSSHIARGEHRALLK

Target: T1, IKZF3 (Homo sapiens, UniProt Q96SW2+Q9UKT9)
T1 construct: from tissue; host or cells: NCI-H929 MM xenograft tumours in female NOD SCID mice
Experiment: NCI-H929 xenograft pharmacodynamic and pharmacokinetic study (Example 40)
Assay type: in vivo, mice
Settings: CC-92480 at ×10, pomalidomide at ×30 higher dose than Compound 1

## N#Cc1ccc(N2CCN(Cc3ccc(COc4cccc5c4CN([C@H]4CCC(=O)NC4=O)C5=O)cc3)CC2)c(F)c1 [CC-92480, reference compound]
  time to reach pretreatment levels of IKZF3: ≤ 48 h
